Laboratory results taken from paper doi:10.1101/2021.12.06.471409.
No constants are given. Whether binding was seen depends on the method and setting. Binding seen in cells or lysates may run through a third protein. Here binding means that the protein was enriched with, or labelled near, the bait; the list need not be complete.

Amino acid sequences for entries named in this document (tags omitted).
UniProt Q96S21: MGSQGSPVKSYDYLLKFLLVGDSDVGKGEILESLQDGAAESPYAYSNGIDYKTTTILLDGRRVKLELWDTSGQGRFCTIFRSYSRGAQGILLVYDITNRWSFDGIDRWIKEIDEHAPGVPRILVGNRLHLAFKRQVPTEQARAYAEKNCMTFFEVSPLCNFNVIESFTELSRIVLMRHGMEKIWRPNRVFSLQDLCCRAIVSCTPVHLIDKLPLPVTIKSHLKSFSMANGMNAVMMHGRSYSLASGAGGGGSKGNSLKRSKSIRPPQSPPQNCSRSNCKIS
UniProt P62140: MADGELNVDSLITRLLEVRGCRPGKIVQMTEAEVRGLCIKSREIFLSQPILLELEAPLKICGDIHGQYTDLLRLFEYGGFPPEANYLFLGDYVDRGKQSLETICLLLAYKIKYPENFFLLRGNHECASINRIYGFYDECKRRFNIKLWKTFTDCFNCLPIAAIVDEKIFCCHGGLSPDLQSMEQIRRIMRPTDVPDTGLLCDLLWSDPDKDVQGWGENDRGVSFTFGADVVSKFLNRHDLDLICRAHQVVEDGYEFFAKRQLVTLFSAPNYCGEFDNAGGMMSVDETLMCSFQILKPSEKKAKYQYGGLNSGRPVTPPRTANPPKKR
UniProt P67775: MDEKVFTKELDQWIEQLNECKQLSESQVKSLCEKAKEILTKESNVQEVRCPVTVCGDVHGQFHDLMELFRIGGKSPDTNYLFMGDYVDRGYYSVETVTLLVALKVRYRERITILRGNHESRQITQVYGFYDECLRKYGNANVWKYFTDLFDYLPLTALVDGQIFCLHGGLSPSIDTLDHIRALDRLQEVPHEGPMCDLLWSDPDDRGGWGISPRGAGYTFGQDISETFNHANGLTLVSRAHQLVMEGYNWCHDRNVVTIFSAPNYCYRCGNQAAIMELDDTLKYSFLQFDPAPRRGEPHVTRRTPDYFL

B1: catalytic PP6 subunit (endogenous, MDA-MB-231) (enzyme, UniProt O00743 1-305)
chain: MAPLDLDKYVEIARLCKYLPENDLKRLCDYVCDLLLEESNVQPVSTPVTVCGDIHGQFYDLCELFRTGGQVPDTNYIFMGDFVDRGYYSLETFTYLLALKAKWPDRITLLRGNHESRQITQVYGFYDECQTKYGNANAWRYCTKVFDMLTVAALIDEQILCVHGGLSPDIKTLDQIRTIERNQEIPHKGAFCDLVWSDPEDVDTWAISPRGAGWLFGAKVTNEFVHINNLKLICRAHQLVHEGYKFMFDEKLVTVWSAPNYCYRCGNIASIMVFKDVNTREPKLFRAVPDSERVIPPRTTTPYFL
B2: PP6R1 (endogenous, MDA-MB-231) (protein, UniProt Q9UPN7 1-881)
chain: MFWKFDLHTSSHLDTLLEREDLSLPELLDEEDVLQECKVVNRKLLDFLLQPPHLQAMVAWVTQEPPDSGEERLRYKYPSVACEILTSDVPQINDALGADESLLNRLYGFLQSTGSLNPLLASFFSKVMGILINRKTDQLVSFLRKKDDFVDLLLQHIGTSAIMDLLLRLLTCVERPQLRQDVVNWLNEEKIVQRLIEQIHPSKDENQHSNASQSLCDIIRLSREQMIQVQDSPEPDQLLATLEKQETIEQLLSNMFEGEQSQSVIVSGIQVLLTLLEPRRPRSESVTVNSFFSSVDGQLELLAQGALESTVSSVGALHALRPRLSCFHQLLLEPPKLEPLQMTWGMLAPPLGNTRLHVVKLLASALSANDAALTHELLALDVPNTMLDLFFHYVFNNFLHAQVEGCVSTMLSLGPPPDSSPETPIQNPVVKHLLQQCRLVERILTSWEENDRVQCAGGPRKGYMGHLTRVAGALVQNTEKGPNAEQLRQLLKELPSEQQEQWEAFVSGPLAETNKKNMVDLVNTHHLHSSSDDEDDRLKEFNFPEEAVLQQAFMDFQMQRMTSAFIDHFGFNDEEFGEQEESVNAPFDKTANITFSLNADDENPNANLLEICYKDRIQQFDDDEEEEDEEEAQGSGESDGEDGAWQGSQLARGARLGQPPGVRSGGSTDSEDEEEEDEEEEEDEEGIGCAARGGATPLSYPSPGPQPPGPSWTATFDPVPTDAPTSPRVSGEEELHTGPPAPQGPLSVPQGLPTQSLASPPARDALQLRSQDPTPPSAPQEATEGSKVTEPSAPCQALVSIGDLQATFHGIRSAPSSSDSATRDPSTSVPASGAHQPPQTTEGEKSPEPLGLPQSQSAQALTPPPIPNGSAPEGPASPGSQ
B3: PPM1G (endogenous, MDA-MB-231) (enzyme, UniProt O15355 1-546)
chain: MGAYLSQPNTVKCSGDGVGAPRLPLPYGFSAMQGWRVSMEDAHNCIPELDSETAMFSVYDGHGGEEVALYCAKYLPDIIKDQKAYKEGKLQKALEDAFLAIDAKLTTEEVIKELAQIAGRPTEDEDEKEKVADEDDVDNEEAALLHEEATMTIEELLTRYGQNCHKGPPHSKSGGGTGEEPGSQGLNGEAGPEDSTRETPSQENGPTAKAYTGFSSNSERGTEAGQVGEPGIPTGEAGPSCSSASDKLPRVAKSKFFEDSEDESDEAEEEEEDSEECSEEEDGYSSEEAENEEDEDDTEEAEEDDEEEEEEMMVPGMEGKEEPGSDSGTTAVVALIRGKQLIVANAGDSRCVVSEAGKALDMSYDHKPEDEVELARIKNAGGKVTMDGRVNGGLNLSRAIGDHFYKRNKNLPPEEQMISALPDIKVLTLTDDHEFMVIACDGIWNVMSSQEVVDFIQSKISQRDENGELRLLSSIVEELLDQCLAPDTSGDGTGCDNMTCIIICFKPRNTAELQPESGKRKLEEVLSTEGAEENGNSDKKKKAKRD
B4: Ankyrin repeat domain 28 (endogenous, MDA-MB-231) (protein, UniProt O15084 1-1053)
chain: MAFLKLRDQPSLVQAIFNGDPDEVRALIFKKEDVNFQDNEKRTPLHAAAYLGDAEIIELLILSGARVNAKDSKWLTPLHRAVASCSEEAVQVLLKHSADVNARDKNWQTPLHIAAANKAVKCAEALVPLLSNVNVSDRAGRTALHHAAFSGHGEMVKLLLSRGANINAFDKKDRRAIHWAAYMGHIEVVKLLVSHGAEVTCKDKKSYTPLHAAASSGMISVVKYLLDLGVDMNEPNAYGNTPLHVACYNGQDVVVNELIDCGAIVNQKNEKGFTPLHFAAASTHGALCLELLVGNGADVNMKSKDGKTPLHMTALHGRFSRSQTIIQSGAVIDCEDKNGNTPLHIAARYGHELLINTLITSGADTAKRGIHGMFPLHLAALSGFSDCCRKLLSSGFDIDTPDDFGRTCLHAAAAGGNLECLNLLLNTGADFNKKDKFGRSPLHYAAANCNYQCLFALVGSGASVNDLDERGCTPLHYAATSDTDGKCLEYLLRNDANPGIRDKQGYNAVHYSAAYGHRLCLQLIASETPLDVLMETSGTDMLSDSDNRATISPLHLAAYHGHHQALEVLVQSLLDLDVRNSSGRTPLDLAAFKGHVECVDVLINQGASILVKDYILKRTPIHAAATNGHSECLRLLIGNAEPQNAVDIQDGNGQTPLMLSVLNGHTDCVYSLLNKGANVDAKDKWGRTALHRGAVTGHEECVDALLQHGAKCLLRDSRGRTPIHLSAACGHIGVLGALLQSAASMDANPATADNHGYTALHWACYNGHETCVELLLEQEVFQKTEGNAFSPLHCAVINDNEGAAEMLIDTLGASIVNATDSKGRTPLHAAAFTDHVECLQLLLSHNAQVNSVDSTGKTPLMMAAENGQTNTVEMLVSSASAELTLQDNSKNTALHLACSKGHETSALLILEKITDRNLINATNAALQTPLHVAARNGLTMVVQELLGKGASVLAVDENGYTPALACAPNKDVADCLALILATMMPVSSSSPLSSLTFNAINRYTNTSKTVSFEALPIMRNEPSSYCSFNNIGGEQEYLYTDVDELNDSDSETY
B5: ANKRD52 (endogenous, MDA-MB-231) (protein, UniProt Q8NB46 1-1076)
chain: MGILSITDQPPLVQAIFSRDVEEVRSLLSQKENINVLDQERRTPLHAAAYVGDVPILQLLLMSGANVNAKDTLWLTPLHRAAASRNEKVLGLLLAHSADVNARDKLWQTPLHVAAANRATKCAEALAPLLSSLNVADRSGRSALHHAVHSGHLETVNLLLNKGASLNVCDKKERQPLHWAAFLGHLEVLKLLVARGADLGCKDRKGYGLLHTAAASGQIEVVKYLLRMGAEIDEPNAFGNTALHIACYLGQDAVAIELVNAGANVNQPNDKGFTPLHVAAVSTNGALCLELLVNNGADVNYQSKEGKSPLHMAAIHGRFTRSQILIQNGSEIDCADKFGNTPLHVAARYGHELLISTLMTNGADTARRGIHDMFPLHLAVLFGFSDCCRKLLSSGQLYSIVSSLSNEHVLSAGFDINTPDNLGRTCLHAAASGGNVECLNLLLSSGADLRRRDKFGRTPLHYAAANGSYQCAVTLVTAGAGVNEADCKGCSPLHYAAASDTYRRAEPHTPSSHDAEEDEPLKESRRKEAFFCLEFLLDNGADPSLRDRQGYTAVHYAAAYGNRQNLELLLEMSFNCLEDVESTIPVSPLHLAAYNGHCEALKTLAETLVNLDVRDHKGRTALFLATERGSTECVEVLTAHGASALIKERKRKWTPLHAAAASGHTDSLHLLIDSGERADITDVMDAYGQTPLMLAIMNGHVDCVHLLLEKGSTADAADLRGRTALHRGAVTGCEDCLAALLDHDAFVLCRDFKGRTPIHLASACGHTAVLRTLLQAALSTDPLDAGVDYSGYSPMHWASYTGHEDCLELLLEHSPFSYLEGNPFTPLHCAVINNQDSTTEMLLGALGAKIVNSRDAKGRTPLHAAAFADNVSGLRMLLQHQAEVNATDHTGRTALMTAAENGQTAAVEFLLYRGKADLTVLDENKNTALHLACSKGHEKCALMILAETQDLGLINATNSALQMPLHIAARNGLASVVQALLSHGATVLAVDEEGHTPALACAPNKDVADCLALILSTMKPFPPKDAVSPFSFSLLKNCSIAAAKTVGGCGALPHGASCPYSQERPGAIGLDGCYSE

Target: FLAG-Rab40c (stably expressed in MDA-MB-231 cells) (human) (UniProt Q96S21)
Experiment: affinity purification with mass spectrometry

Row | Molecule | binding
1 | PP1CB (endogenous, MDA-MB-231) (from UniProt P62140 1-327) (enzyme) | binds
2 | PP2CA (endogenous, MDA-MB-231) (from UniProt P67775 1-309) (enzyme) | binds
3 | B1 | binds
4 | B2 | binds
5 | B3 | binds
6 | B4 | binds
7 | B5 | binds
